Results on one compound are retold here after patent US20240269227A1, “CALCIUM-SENSING RECEPTOR AGONIST COMPOSITION AND APPLICATION THEREOF” (Beijing Tuo Jie Biopharmaceutical Co. Ltd., priority 2021, published 2024).

Protein sequences, listed by entry. Tags and fused reporters are not part of them. Residues count along the entry.
UniProt P41180, 20-1078: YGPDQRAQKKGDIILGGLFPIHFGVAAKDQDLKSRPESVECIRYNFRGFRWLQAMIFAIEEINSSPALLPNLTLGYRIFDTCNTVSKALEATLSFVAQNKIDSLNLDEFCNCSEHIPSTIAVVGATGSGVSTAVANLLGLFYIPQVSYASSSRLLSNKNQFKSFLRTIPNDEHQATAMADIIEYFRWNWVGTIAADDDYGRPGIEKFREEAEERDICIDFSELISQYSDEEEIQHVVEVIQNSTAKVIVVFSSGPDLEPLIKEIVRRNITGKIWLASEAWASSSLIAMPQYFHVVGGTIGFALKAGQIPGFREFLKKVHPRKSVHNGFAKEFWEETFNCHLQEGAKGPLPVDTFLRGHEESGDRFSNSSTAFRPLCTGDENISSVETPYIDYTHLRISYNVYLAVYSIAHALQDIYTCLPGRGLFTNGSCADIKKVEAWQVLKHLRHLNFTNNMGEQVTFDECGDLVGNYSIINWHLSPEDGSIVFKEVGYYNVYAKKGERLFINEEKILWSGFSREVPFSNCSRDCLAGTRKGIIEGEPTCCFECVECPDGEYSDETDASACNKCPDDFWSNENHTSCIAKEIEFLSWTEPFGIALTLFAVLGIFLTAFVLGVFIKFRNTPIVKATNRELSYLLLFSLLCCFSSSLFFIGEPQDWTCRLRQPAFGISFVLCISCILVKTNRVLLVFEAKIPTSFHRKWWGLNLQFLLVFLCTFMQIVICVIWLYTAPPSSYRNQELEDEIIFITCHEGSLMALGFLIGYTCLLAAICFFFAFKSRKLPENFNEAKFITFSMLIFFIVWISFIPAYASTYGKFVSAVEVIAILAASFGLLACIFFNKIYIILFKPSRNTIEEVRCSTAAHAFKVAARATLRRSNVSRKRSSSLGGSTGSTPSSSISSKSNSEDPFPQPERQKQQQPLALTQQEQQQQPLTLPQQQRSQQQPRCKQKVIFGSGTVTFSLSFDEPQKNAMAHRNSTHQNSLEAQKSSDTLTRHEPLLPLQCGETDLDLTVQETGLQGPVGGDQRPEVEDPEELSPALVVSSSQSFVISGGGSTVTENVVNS

Molecules are shown by their SMILES. pEC50: −log10 of the molar value. Some results are limits rather than exact numbers.

A word on the pEC50: it is the negative decadic logarithm of the EC50, by convention in mol/L.

The target in the assay is human calcium-sensing receptor (CaSR) (Homo sapiens, UniProt P41180). Nature of the assay: cell-based.

`CC[C@@H](NC(=O)[C@@H](CCCNC(=N)N)NC(=O)[C@@H](CCCNC(=N)N)NC(=O)[C@@H](CSSC[C@H](N)C(=O)O)NC(C)=O)C(=O)N[C@H](CCCNC(=N)N)C(=O)N[C@H](C)C(=O)N[C@H](CCCNC(=N)N)C(N)=O` [Compound of formula (I), Ac-c(C)-r-r-(D-Abu)-r-a-r-NH2]: the negative logarithm of the EC50 (pEC50) was more than 5.00.
